{
  "source": "the supplement of paper PMC8728848",
  "test_in_all_cases": "glycan array binding signal (z-score within array); higher = stronger binding",
  "conditions_in_all_cases": "glycan notation: IUPAC condensed, linker removed",
  "key": {"[1]": {"target": "Gal(b1-3)[Neu5Ac(a2-6)]GlcNAc(b1-6)Gal(b1-4)Glc", "summary_of_the_method": "(§1)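 The Consortium for Functional Glycomics database supplied 3228 glycan arrays, of which those lacking an available protein sequence were dropped. The binding signal, a within-array Z-score, was averaged across arrays of the same protein sequence and across linkers. Negative scores can be read as non-binding.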"}, "[2]": {"target": "Gal(b1-3)[Neu5Ac(b2-6)]GalNAc", "summary_of_the_method": "as §1"}, "Gal(b1-4)Gal": {"target": "Gal(b1-4)Gal", "summary_of_the_method": "as §1"}, "[3]": {"target": "Gal(b1-4)GalNAc(a1-3)[Fuc(a1-2)]Gal(b1-4)GlcNAc", "summary_of_the_method": "as §1"}, "[4]": {"target": "Gal(b1-4)GalNAc(b1-3)[Fuc(a1-2)]Gal(b1-4)GlcNAc", "summary_of_the_method": "as §1"}, "Gal(b1-4)Glc": {"target": "Gal(b1-4)Glc", "summary_of_the_method": "as §1"}, "Gal(b1-4)Glc6S": {"target": "Gal(b1-4)Glc6S", "summary_of_the_method": "as §1"}, "Gal(b1-4)GlcNAc": {"target": "Gal(b1-4)GlcNAc", "summary_of_the_method": "as §1"}, "[5]": {"target": "Gal(b1-4)GlcNAc(a1-6)Gal(b1-4)GlcNAc", "summary_of_the_method": "as §1"}, "Gal(b1-4)GlcNAc(b1-2)Man": {"target": "Gal(b1-4)GlcNAc(b1-2)Man", "summary_of_the_method": "as §1"}, "[6]": {"target": "Gal(b1-4)GlcNAc(b1-2)Man(a1-3)Man(b1-4)GlcNAc(b1-4)GlcNAc", "summary_of_the_method": "as §1"}, "[7]": {"target": "Gal(b1-4)GlcNAc(b1-2)Man(a1-3)[Gal(b1-4)GlcNAc(b1-2)Man(a1-6)]Man(b1-4)GlcNAc(b1-4)GlcNAc", "summary_of_the_method": "as §1"}, "[8]": {"target": "Gal(b1-4)GlcNAc(b1-2)Man(a1-3)[Gal(b1-4)GlcNAc(b1-2)Man(a1-6)]Man(b1-4)GlcNAc(b1-4)[Fuc(a1-6)]GlcNAc", "summary_of_the_method": "as §1"}, "[9]": {"target": "Gal(b1-4)GlcNAc(b1-2)Man(a1-3)[Gal(b1-4)GlcNAc(b1-2)Man(a1-6)][Gal(b1-4)GlcNAc(b1-4)]Man(b1-4)GlcNAc(b1-4)[Fuc(a1-6)]GlcNAc", "summary_of_the_method": "as §1"}, "[10]": {"target": "Gal(b1-4)GlcNAc(b1-2)Man(a1-3)[Gal(b1-4)GlcNAc(b1-2)Man(a1-6)][GlcNAc(b1-4)]Man(b1-4)GlcNAc(b1-4)[Fuc(a1-6)]GlcNAc", "summary_of_the_method": "as §1"}, "[11]": {"target": "Gal(b1-4)GlcNAc(b1-2)Man(a1-3)[Gal(b1-4)GlcNAc(b1-2)][GlcNAc(b1-4)]Man(b1-4)GlcNAc(b1-4)GlcNAc", "summary_of_the_method": "as §1"}, "[12]": {"target": "Gal(b1-4)GlcNAc(b1-2)Man(a1-3)[GlcNAc(b1-2)Man(a1-6)]Man(b1-4)GlcNAc(b1-4)GlcNAc", "summary_of_the_method": "as §1"}, "[13]": {"target": "Gal(b1-4)GlcNAc(b1-2)Man(a1-3)[GlcNAc(b1-4)][Gal(b1-4)GlcNAc(b1-2)Man(a1-6)]Man(b1-4)GlcNAc(b1-4)GlcNAc", "summary_of_the_method": "as §1"}, "[14]": {"target": "Gal(b1-4)GlcNAc(b1-2)Man(a1-3)[Man(a1-6)]Man(b1-4)GlcNAc(b1-4)GlcNAc", "summary_of_the_method": "as §1"}, "[15]": {"target": "Gal(b1-4)GlcNAc(b1-2)Man(a1-6)Man(b1-4)GlcNAc(b1-4)GlcNAc", "summary_of_the_method": "as §1"}, "[16]": {"target": "Gal(b1-4)GlcNAc(b1-2)Man(a1-6)[GlcNAc(b1-2)Man(a1-3)]Man(b1-4)GlcNAc(b1-4)GlcNAc", "summary_of_the_method": "as §1"}, "[17]": {"target": "Gal(b1-4)GlcNAc(b1-2)Man(a1-6)[Man(a1-3)]Man(b1-4)GlcNAc(b1-4)GlcNAc", "summary_of_the_method": "as §1"}, "[18]": {"target": "Gal(b1-4)GlcNAc(b1-2)[Gal(b1-4)GlcNAc(b1-4)]Man(a1-3)[Gal(b1-4)GlcNAc(b1-2)Man(a1-6)]Man(b1-4)GlcNAc(b1-4)GlcNAc", "summary_of_the_method": "as §1"}, "[19]": {"target": "Gal(b1-4)GlcNAc(b1-2)[Gal(b1-4)GlcNAc(b1-4)]Man(a1-3)[Gal(b1-4)GlcNAc(b1-2)[Gal(b1-4)GlcNAc(b1-6)]Man(a1-6)]Man(b1-4)GlcNAc(b1-4)GlcNAc", "summary_of_the_method": "as §1"}, "[20]": {"target": "Gal(b1-4)GlcNAc(b1-2)[Gal(b1-4)GlcNAc(b1-4)]Man(a1-3)[GlcNAc(b1-4)][Gal(b1-4)GlcNAc(b1-2)Man(a1-6)]Man(b1-4)GlcNAc(b1-4)GlcNAc", "summary_of_the_method": "as §1"}, "[21]": {"target": "Gal(b1-4)GlcNAc(b1-2)[Gal(b1-4)GlcNAc(b1-4)]Man(a1-3)[GlcNAc(b1-4)][Gal(b1-4)GlcNAc(b1-2)[Gal(b1-4)GlcNAc(b1-6)]Man(a1-6)]Man(b1-4)GlcNAc(b1-4)GlcNAc", "summary_of_the_method": "as §1"}},
  "note": "This is one part of the list.",
  "data": [
    {"binder": "KILRGVCKKIMRTFLRRISKDILTGKK", "note": "[NK2 (Sus scrofa)]", "values": [
      {"measurement": "glycan array binding signal (z-score)", "setting": "[1]", "value": -0.316},
      {"measurement": "glycan array binding signal (z-score)", "setting": "[2]", "value": -0.591},
      {"measurement": "glycan array binding signal (z-score)", "setting": "Gal(b1-4)Gal", "value": -0.503},
      {"measurement": "glycan array binding signal (z-score)", "setting": "[3]", "value": -0.65},
      {"measurement": "glycan array binding signal (z-score)", "setting": "[4]", "value": -0.97},
      {"measurement": "glycan array binding signal (z-score)", "setting": "Gal(b1-4)Glc", "value": -0.036},
      {"measurement": "glycan array binding signal (z-score)", "setting": "Gal(b1-4)Glc6S", "value": 0.258},
      {"measurement": "glycan array binding signal (z-score)", "setting": "Gal(b1-4)GlcNAc", "value": -0.442},
      {"measurement": "glycan array binding signal (z-score)", "setting": "[5]", "value": -0.977},
      {"measurement": "glycan array binding signal (z-score)", "setting": "Gal(b1-4)GlcNAc(b1-2)Man", "value": -0.61},
      {"measurement": "glycan array binding signal (z-score)", "setting": "[6]", "value": 0.721},
      {"measurement": "glycan array binding signal (z-score)", "setting": "[7]", "value": -0.109},
      {"measurement": "glycan array binding signal (z-score)", "setting": "[8]", "value": 0.056},
      {"measurement": "glycan array binding signal (z-score)", "setting": "[9]", "value": 0.368},
      {"measurement": "glycan array binding signal (z-score)", "setting": "[10]", "value": -0.408},
      {"measurement": "glycan array binding signal (z-score)", "setting": "[11]", "value": -0.289},
      {"measurement": "glycan array binding signal (z-score)", "setting": "[12]", "value": -0.812},
      {"measurement": "glycan array binding signal (z-score)", "setting": "[13]", "value": 0.481},
      {"measurement": "glycan array binding signal (z-score)", "setting": "[14]", "value": 0.68},
      {"measurement": "glycan array binding signal (z-score)", "setting": "[15]", "value": -0.229},
      {"measurement": "glycan array binding signal (z-score)", "setting": "[16]", "value": -0.72},
      {"measurement": "glycan array binding signal (z-score)", "setting": "[17]", "value": -0.399},
      {"measurement": "glycan array binding signal (z-score)", "setting": "[18]", "value": -0.148},
      {"measurement": "glycan array binding signal (z-score)", "setting": "[19]", "value": -0.454},
      {"measurement": "glycan array binding signal (z-score)", "setting": "[20]", "value": -0.023},
      {"measurement": "glycan array binding signal (z-score)", "setting": "[21]", "value": 0.574}
    ]}
  ]
}
